Measured values taken from patent US20090082371A1, “Treatment of Viral Disease and Cancer With Nf-kappaB Inhibitors” (priority 2005, published 2009).
For at least one compound, name, drawing or mass did not settle the structure.

How the values were obtained:
[1] = system: PANC-1 human pancreatic carcinoma cells; assay: Cancer cell growth, viable cell count by trypan blue exclusion; assay type: cell-based; conditions: PANC-1, 5 μM, day 6
Text: (§1) The tested cells include LNCAP human prostate cancer cells, MDA-MB-468 human breast cancer cells, H1299 human lung cancer cells, AGS human gastric cancer cells, HepG2 human liver cancer cells, PANC-1 human pancreatic carcinoma cells, Jurkat human acute T-cell leukemia cells, A431 human epidermoid carcinoma cells, U251 human glioma cells, NBT-II human bladder cancer cells, and Hela human cervical cancer cells.

[2] = system: H1299 human lung cancer cells; assay: as above; assay type: cell-based; conditions: H1299, 5 μM, day 6
Text: as §1

[3] = system: A431 human epidermoid carcinoma cells; assay: as above; assay type: cell-based; conditions: A431, 5 μM, day 6
Text: as §1

U251 human glioma cells = assay: as above; assay type: cell-based; conditions: U251, 5 μM, day 6
Text: as §1

[4] = system: NBT-II human bladder cancer cells; assay: as above; assay type: cell-based; conditions: 5 μM, day 6
Text: as §1

[5] = system: HepG2 human liver cancer cells; assay: as above; assay type: cell-based; conditions: HepG2, 5 μM, day 6
Text: as §1

[6] = system: AGS human gastric cancer cells; assay: as above; assay type: cell-based; conditions: 5 μM, day 6
Text: as §1

[7] = system: Hela human cervical cancer cells; assay: as above; assay type: cell-based; conditions: 5 μM, day 6
Text: as §1

[8] = system: MDA-MB-468 human breast cancer cells; assay: as above; assay type: cell-based; conditions: MDA-MB-468, 5 μM, day 6
Text: as §1

[9] = system: LNCAP human prostate cancer cells; assay: as above; assay type: cell-based; conditions: 5 μM, day 6
Text: as §1

HT29 cells = assay: as above; assay type: cell-based; conditions: HT29, 5 μM, day 6
[10] = system: VSV-G-enveloped HIV-Luciferase viruses (HIV-1)

Which cell apoptosis [1] does the source give for CC1=C(O)C(=O)C=C2C1=CC=C1[C@@]2(C)CC[C@@]2(C)[C@@H]3C[C@](C)(C(=O)O)CC[C@]3(C)CC[C@]12C [celastrol, 3-hydroxy-24-nor-2-oxo-1(10),3,5,7-friedelatetraen-29-oic Acid] here?
Its cell apoptosis is “complete cell apoptosis”.

What about the cell apoptosis [2] of the same compound?
Its cell apoptosis is “complete cell apoptosis”.

What about the cell apoptosis [3] of the same compound?
The cell apoptosis was “complete cell apoptosis”.

What about the cell apoptosis (U251 human glioma cells) of the same compound?
The cell apoptosis was “complete cell apoptosis”.

What about the cell apoptosis [4] of the same compound?
Its cell apoptosis is “complete cell apoptosis”.

And the cell apoptosis [5]?
Its cell apoptosis is “complete cell apoptosis”.

And the cell apoptosis [6]?
Its cell apoptosis is “complete cell apoptosis”.

What about the cell apoptosis [7] of the same compound?
The cell apoptosis was “complete cell apoptosis”.

What about the cell apoptosis [8] of the same compound?
The cell apoptosis was “complete cell apoptosis”.

And the cell apoptosis [9]?
Its cell apoptosis is “complete cell apoptosis”.

And the cell apoptosis (HT29 cells)?
The cell apoptosis was “complete cell apoptosis”.

And the “inhibition of HIV-1 viral infection and replication (HIV-1-induced Luciferase activity)” value [10]?
The value was “showed inhibition”.
